Some of the results follow.
Experiments:
Assay in all cases: log2 fold change, soluble protein after heating vs DMSO (PISA); higher = thermal stabilisation; K562 lysate, 10 uM; active = over 0.2 and 3.5 SD of the protein, either way, in both replicates (recomputed)
[1] = compound: NCC(=O)Nc1ccc(-n2nc(C(F)(F)F)cc2-c2ccc3c(ccc4ccccc43)c2)cc1
How it was run: (§1)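 Following dounce homogenisation of K562 pellets in PBS pH 7.4 with 1 mM MgCl2, crude extract at 1 mg/mL protein was incubated for 30 min with 10 μM compound. Aliquots were then heated for 3 min over 48°C-58°C and pooled, NP-40 was added to 0.5% at 4°C, and soluble protein was recovered as the supernatant at 21,000xg for 90 min. Channel-sum-equalised TMTpro 16plex LC-MS/MS quantified this protein. Each value, from duplicates, is a log-two fold change in thermal stability relative to solvent controls.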

Chains of the proteins cited; added tags and fusions are not shown. Lines headed by an entry give the natural chain unless they say otherwise; changes in a name come on top.
UniProt Q13144, whole entry, looked up: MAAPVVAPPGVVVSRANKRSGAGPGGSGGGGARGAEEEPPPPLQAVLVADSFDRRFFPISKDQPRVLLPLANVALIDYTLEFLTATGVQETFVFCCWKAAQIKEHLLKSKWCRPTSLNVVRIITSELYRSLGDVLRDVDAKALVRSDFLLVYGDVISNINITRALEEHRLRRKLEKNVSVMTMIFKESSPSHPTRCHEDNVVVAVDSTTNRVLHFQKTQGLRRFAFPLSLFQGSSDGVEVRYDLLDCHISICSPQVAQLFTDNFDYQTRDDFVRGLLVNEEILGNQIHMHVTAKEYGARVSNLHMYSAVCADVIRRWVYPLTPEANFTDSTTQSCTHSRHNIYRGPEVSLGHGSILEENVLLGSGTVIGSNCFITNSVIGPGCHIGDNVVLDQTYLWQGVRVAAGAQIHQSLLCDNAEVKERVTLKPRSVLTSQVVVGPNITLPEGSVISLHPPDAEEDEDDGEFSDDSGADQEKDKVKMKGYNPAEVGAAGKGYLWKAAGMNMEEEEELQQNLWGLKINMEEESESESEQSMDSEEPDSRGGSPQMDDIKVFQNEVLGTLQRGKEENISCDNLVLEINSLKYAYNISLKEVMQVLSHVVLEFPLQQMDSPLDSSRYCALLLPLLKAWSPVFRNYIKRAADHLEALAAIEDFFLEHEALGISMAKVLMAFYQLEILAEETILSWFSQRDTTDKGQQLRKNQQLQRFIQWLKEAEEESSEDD
UniProt Q7L5Y1: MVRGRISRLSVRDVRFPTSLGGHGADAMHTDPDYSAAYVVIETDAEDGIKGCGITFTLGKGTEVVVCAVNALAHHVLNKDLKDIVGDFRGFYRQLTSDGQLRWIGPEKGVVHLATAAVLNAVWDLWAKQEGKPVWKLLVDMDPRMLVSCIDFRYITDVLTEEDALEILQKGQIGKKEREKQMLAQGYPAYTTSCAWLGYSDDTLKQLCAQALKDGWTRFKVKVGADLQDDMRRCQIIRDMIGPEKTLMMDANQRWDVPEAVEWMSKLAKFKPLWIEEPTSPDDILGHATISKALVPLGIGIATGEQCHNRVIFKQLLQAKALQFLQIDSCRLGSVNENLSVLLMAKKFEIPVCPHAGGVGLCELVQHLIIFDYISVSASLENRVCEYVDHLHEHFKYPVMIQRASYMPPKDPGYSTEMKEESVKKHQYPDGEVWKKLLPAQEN
UniProt P49770: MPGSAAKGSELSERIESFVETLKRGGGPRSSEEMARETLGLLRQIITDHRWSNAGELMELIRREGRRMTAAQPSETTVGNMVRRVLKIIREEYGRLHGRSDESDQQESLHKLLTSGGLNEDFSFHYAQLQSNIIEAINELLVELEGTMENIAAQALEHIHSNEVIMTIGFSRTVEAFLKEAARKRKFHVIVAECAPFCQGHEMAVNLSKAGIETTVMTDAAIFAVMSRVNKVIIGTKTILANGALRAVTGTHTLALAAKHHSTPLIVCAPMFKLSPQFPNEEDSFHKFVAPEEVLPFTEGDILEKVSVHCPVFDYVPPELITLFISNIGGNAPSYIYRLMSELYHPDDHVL
UniProt Q9Y262, whole entry, looked up: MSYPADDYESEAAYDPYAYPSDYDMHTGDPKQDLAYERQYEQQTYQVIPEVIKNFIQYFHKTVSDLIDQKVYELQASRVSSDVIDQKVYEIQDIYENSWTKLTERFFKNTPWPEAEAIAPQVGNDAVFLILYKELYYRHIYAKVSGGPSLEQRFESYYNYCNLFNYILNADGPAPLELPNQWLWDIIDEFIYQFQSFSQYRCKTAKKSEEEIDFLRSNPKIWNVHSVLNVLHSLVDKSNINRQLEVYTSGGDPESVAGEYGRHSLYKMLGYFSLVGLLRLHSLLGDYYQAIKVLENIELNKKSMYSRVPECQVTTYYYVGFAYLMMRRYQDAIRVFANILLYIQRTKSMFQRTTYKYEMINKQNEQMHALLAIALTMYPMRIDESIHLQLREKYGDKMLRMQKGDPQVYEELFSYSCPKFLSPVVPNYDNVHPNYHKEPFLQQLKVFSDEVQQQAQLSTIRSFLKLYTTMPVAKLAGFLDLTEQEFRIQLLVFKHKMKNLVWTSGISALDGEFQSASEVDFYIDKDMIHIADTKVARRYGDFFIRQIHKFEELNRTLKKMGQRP
UniProt Q9UI10, whole entry, looked up: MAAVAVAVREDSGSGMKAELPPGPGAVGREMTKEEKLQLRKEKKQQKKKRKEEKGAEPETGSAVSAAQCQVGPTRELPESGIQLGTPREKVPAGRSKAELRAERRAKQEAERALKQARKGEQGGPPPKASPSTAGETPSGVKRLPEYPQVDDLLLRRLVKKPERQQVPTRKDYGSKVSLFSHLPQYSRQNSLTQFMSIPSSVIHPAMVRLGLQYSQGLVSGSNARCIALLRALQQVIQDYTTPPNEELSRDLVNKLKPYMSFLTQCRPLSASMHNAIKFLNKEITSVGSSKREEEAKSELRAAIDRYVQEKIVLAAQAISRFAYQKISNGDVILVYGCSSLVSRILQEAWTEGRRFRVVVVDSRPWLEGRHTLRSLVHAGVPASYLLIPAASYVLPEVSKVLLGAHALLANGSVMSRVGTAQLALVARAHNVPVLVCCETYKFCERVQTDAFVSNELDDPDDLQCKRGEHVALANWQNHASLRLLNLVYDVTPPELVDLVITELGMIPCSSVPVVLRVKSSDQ
UniProt P55010, whole entry, looked up: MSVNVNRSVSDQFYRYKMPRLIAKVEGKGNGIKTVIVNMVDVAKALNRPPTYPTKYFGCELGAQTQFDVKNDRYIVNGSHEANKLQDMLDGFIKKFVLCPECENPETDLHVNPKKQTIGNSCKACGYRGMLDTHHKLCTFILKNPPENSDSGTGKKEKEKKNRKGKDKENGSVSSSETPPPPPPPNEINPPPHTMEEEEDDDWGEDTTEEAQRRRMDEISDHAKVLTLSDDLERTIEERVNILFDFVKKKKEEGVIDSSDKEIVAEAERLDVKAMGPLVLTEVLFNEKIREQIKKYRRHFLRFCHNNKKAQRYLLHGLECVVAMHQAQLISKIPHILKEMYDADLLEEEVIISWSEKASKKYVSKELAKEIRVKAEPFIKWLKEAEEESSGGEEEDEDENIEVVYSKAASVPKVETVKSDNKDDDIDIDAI
UniProt O60516: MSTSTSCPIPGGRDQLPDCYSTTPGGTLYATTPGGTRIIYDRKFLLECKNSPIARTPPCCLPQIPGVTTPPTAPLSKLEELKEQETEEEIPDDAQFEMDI
UniProt Q9NQZ7: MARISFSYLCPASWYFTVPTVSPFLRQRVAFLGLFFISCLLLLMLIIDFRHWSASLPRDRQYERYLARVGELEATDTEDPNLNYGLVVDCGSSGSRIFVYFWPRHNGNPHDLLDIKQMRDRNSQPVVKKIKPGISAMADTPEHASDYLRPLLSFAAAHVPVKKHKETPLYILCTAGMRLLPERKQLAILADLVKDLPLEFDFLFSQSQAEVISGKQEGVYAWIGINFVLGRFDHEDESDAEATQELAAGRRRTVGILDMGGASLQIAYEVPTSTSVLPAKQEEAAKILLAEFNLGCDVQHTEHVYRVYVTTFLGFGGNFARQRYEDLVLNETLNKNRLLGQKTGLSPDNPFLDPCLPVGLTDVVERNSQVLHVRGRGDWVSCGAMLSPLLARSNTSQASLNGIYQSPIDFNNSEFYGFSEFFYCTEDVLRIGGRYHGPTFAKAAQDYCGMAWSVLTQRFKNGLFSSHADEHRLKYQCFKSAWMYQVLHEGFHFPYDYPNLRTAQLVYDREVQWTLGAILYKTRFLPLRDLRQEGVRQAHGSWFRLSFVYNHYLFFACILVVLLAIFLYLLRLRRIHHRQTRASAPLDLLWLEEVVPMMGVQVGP
UniProt Q9UKR5: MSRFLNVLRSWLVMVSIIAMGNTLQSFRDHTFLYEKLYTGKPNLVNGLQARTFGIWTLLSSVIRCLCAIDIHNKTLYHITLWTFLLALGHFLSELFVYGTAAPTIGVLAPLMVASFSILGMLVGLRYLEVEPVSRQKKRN
UniProt O15197: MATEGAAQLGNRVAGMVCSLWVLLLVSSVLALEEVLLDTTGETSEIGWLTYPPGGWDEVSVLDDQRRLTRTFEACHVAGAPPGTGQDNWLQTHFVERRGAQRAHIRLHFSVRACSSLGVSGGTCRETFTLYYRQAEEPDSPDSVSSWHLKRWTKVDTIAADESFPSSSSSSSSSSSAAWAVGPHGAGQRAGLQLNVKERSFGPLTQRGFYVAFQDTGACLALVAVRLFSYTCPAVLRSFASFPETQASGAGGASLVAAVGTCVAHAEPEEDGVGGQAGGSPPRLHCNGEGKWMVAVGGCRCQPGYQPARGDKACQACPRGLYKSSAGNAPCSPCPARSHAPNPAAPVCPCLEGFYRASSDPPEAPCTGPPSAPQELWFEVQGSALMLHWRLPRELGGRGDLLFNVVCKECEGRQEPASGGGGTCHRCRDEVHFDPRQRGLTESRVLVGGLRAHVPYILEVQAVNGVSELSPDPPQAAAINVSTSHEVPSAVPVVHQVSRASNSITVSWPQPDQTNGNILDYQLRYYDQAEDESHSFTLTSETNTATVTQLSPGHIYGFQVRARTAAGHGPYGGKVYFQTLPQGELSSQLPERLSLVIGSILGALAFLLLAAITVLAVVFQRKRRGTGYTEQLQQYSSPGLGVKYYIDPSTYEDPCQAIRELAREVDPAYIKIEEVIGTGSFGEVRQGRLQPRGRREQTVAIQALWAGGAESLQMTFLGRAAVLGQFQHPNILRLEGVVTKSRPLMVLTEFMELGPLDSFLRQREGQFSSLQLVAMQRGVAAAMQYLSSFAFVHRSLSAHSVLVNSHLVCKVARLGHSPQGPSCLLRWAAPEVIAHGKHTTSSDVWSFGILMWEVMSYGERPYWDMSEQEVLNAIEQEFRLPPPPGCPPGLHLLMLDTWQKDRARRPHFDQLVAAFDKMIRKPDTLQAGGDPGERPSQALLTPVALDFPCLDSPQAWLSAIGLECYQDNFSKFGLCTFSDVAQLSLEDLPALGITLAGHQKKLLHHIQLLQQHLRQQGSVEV
UniProt Q9NYP7: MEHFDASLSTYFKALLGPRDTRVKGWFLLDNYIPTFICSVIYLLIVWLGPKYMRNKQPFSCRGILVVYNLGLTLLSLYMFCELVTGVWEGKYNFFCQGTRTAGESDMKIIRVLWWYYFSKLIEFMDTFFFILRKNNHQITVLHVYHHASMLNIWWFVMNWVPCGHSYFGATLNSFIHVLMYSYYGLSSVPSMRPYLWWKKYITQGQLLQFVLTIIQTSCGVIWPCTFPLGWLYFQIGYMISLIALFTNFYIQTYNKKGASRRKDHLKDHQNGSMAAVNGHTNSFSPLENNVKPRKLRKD
UniProt Q9HCM4: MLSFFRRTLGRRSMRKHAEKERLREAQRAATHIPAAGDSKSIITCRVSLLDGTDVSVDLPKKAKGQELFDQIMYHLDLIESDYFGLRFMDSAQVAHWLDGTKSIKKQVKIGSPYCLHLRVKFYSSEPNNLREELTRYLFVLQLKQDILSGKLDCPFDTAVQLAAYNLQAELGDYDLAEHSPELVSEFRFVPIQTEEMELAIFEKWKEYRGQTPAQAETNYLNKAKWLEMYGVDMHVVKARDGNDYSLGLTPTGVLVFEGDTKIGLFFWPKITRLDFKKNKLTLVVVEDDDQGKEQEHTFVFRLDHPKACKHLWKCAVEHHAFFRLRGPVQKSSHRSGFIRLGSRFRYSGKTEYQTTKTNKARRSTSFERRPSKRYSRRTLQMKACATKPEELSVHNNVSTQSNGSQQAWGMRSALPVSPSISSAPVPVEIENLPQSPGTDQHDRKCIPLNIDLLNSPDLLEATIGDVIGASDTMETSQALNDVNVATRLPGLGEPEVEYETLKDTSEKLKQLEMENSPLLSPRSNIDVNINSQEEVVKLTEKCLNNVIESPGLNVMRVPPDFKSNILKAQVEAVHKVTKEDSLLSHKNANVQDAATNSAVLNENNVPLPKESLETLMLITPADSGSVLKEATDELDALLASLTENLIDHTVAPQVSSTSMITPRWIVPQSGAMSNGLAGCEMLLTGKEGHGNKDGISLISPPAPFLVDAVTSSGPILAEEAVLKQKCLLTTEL
UniProt A1L3X0: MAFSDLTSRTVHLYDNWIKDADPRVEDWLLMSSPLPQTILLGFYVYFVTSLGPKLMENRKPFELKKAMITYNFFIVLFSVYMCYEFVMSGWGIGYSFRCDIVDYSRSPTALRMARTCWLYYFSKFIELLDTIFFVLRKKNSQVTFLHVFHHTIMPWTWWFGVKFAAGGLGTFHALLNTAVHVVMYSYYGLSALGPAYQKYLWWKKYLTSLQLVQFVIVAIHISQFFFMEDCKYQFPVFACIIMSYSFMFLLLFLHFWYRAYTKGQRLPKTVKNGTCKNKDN

vorinostat = compound: O=C(CCCCCCC(=O)Nc1ccccc1)NO [vorinostat]
How it was run: as §1

silmitasertib = compound: O=C(O)c1ccc2c(c1)nc(Nc1cccc(Cl)c1)c1ccncc12 [silmitasertib]
How it was run: as §1

[2] = compound: O=C1NC(=O)C(c2cnc3ccccn23)=C1c1cn2c3c(cc(F)cc13)CN(C(=O)N1CCCCC1)CC2
How it was run: as §1

entospletinib = compound: c1cn2cc(-c3ccc4cn[nH]c4c3)nc(Nc3ccc(N4CCOCC4)cc3)c2n1 [entospletinib]
How it was run: as §1

Measured: log2 fold change

EIF2B5 (UniProt Q13144)
active: vorinostat -0.227
inactive: [1] 0.013 | silmitasertib -0.009 | [2] -0.029 | entospletinib 0.013

EIF4H isoform 2 (UniProt Q15056)
inactive: [1] -0.227 | vorinostat 0.177 | silmitasertib -0.01 | [2] 0.082 | entospletinib -0.154

ENOSF1 (UniProt Q7L5Y1)
inactive: [1] -0.005 | vorinostat 0.115 | silmitasertib 0.005 | [2] 0.029 | entospletinib 0.018

EIF2B2 (UniProt P49770)
inactive: [1] -0.036 | vorinostat -0.019 | silmitasertib 0.03 | [2] -0.018 | entospletinib -0.002

EIF4E2 (UniProt O60573)
inactive: [1] 0.037 | vorinostat -0.048 | silmitasertib -0.011 | [2] 0.038 | entospletinib -0.013

EIF3L (UniProt Q9Y262)
inactive: [1] -0.007 | vorinostat 0.062 | silmitasertib -0.004 | [2] -0.013 | entospletinib 0.012

EIF2B4 (UniProt Q9UI10)
inactive: [1] 0.028 | vorinostat -0.135 | silmitasertib 0.013 | [2] -0.006 | entospletinib -0.05

ERCC4 (UniProt Q92889)
active: vorinostat -0.241
inactive: [1] 0.026 | silmitasertib 0.002 | [2] -0.065 | entospletinib 0.021

EMC8 (UniProt O43402)
inactive: [1] 0.027 | vorinostat 0.111 | silmitasertib 0.002 | [2] -0.017 | entospletinib 0.006

Two entries picked at random from the list so far, as already listed:
EMC8 (UniProt O43402)
inactive: [1] 0.027 | vorinostat 0.111 | silmitasertib 0.002 | [2] -0.017 | entospletinib 0.006

EIF2B4 (UniProt Q9UI10)
inactive: [1] 0.028 | vorinostat -0.135 | silmitasertib 0.013 | [2] -0.006 | entospletinib -0.05

(list continues)

EPHX1 (UniProt P07099)
inactive: [1] -0.001 | vorinostat 0.129 | silmitasertib -0.01 | [2] 0.033 | entospletinib -0.017

EPM2AIP1 (UniProt Q7L775)
inactive: [1] -0.013 | vorinostat -0.108 | silmitasertib 0.012 | [2] -0.014 | entospletinib 0.003

EIF5 (UniProt P55010)
inactive: [1] 0.002 | vorinostat 0.051 | silmitasertib -0.017 | [2] -0.002 | entospletinib 0.003

EME1 isoform 2 (UniProt Q96AY2)
inactive: [1] 0.133 | [2] -0.021 | entospletinib 0

EIF4EBP3 (UniProt O60516)
inactive: vorinostat -0.024 | silmitasertib 0.064

EIF4B (UniProt F8VP89)
inactive: [2] 0.274

ENTPD7 (UniProt Q9NQZ7)
inactive: [1] 0.015 | entospletinib -0.074

ERG28 (UniProt Q9UKR5)
inactive: entospletinib 0.009

EPB41 isoform 4 (UniProt P11171)
inactive: vorinostat 0.071 | silmitasertib 0.101 | [2] -0.085

EPHB6 (UniProt O15197)
inactive: [1] -0.271 | entospletinib -0.022

EIF3B (UniProt C9JQN7)
inactive: vorinostat 0.103 | silmitasertib -0.04 | [2] 0.065

EPG5 (UniProt Q9HCE0)
inactive: vorinostat -0.138 | silmitasertib -0.131 | [2] -0.037 | entospletinib 0.077

EMC1 isoform 3 (UniProt Q8N766)
inactive: [2] 0.111

EPB41, A0A2R8Y783
inactive: [1] -0.071 | entospletinib 0.393

EMC1 (UniProt H7C5A2)
inactive: vorinostat 0.241 | silmitasertib 0.059 | [2] 0.145

ELOVL5 isoform 2 (UniProt Q9NYP7)
inactive: [1] -0.016 | [2] -0.037 | entospletinib -0.005

ENTR1 (UniProt Q96C92)
inactive: [1] -0.156 | [2] 0.036 | entospletinib 0.188

EPB41L5 (UniProt Q9HCM4)
inactive: vorinostat -0.465 | silmitasertib 0.237 | [2] 0.013 | entospletinib 0.144

EPS8L1 (UniProt Q8TE68)
inactive: [1] 0.037 | [2] 0.243 | entospletinib -0.035

ELOVL7 (UniProt A1L3X0)
inactive: vorinostat 0.202 | silmitasertib -0.078

EIF3J isoform 2 (UniProt O75822)
inactive: [1] 0.051 | entospletinib 0.017

ELAC1 (UniProt Q9H777)
inactive: [1] 0.052 | entospletinib 0

ELK1 (UniProt P19419)
inactive: [1] 0 | entospletinib -0.092

From the supplement of paper PMC10849652
